For one molecule, binding results are on record in article PMC10804810.

Results are given in words; binding and its absence hold for the method and conditions named. Some binding calls cover weakened binding; strength is not graded here. Sequences can lack the tags named with a protein.

This experiment has as its target T1, HEMK2 protein methyltransferase (murine, His-tagged) (murine) (UniProt Q6SKR2).
T1 sequence: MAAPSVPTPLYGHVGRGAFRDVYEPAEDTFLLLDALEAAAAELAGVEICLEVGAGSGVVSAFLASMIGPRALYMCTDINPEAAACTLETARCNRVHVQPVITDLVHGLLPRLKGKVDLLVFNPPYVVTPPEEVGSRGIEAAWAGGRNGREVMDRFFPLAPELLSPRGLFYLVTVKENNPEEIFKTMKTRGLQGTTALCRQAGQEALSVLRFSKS
As to the kind of experiment: co-purification (Ni-NTA affinity chromatography); His-tagged HEMK2 and untagged TRMT112 co-expressed in E. coli; lysate loaded on Ni-NTA agarose, washed in 30 mM KPI, 500 mM KCl, 20 mM imidazole, eluted with 220 mM imidazole; Coomassie stained SDS gel.

B1: TRMT112 (untagged complex partner of HEMK2) (protein, UniProt Q9DCG9 1-125)
chain: MKLLTHNLLSSHVRGVGTRGFPLRLQATEVRINPVEFNPEFVARMIPKVEWAALVQAADTLNLAEVPKEPTEGYEHDETFLRKMHHVLLEVDVLEGTLQCPESGRLFPISRGIPNMLLNDEETET
For the molecule B1, the binding entry is “binds”.
